According to article doi:10.1101/215962:
These are yes or no findings as the source states them, for the method shown. Binding seen in cells or lysates may run through a third protein. A yes stands for co-enrichment or nearness to the bait. Other partners may have been found.

Protein sequences, listed by entry. Tags and fused reporters are not part of them. Lines headed by an entry give the natural chain unless they say otherwise; changes in a name come on top.
UniProt Q9Y812: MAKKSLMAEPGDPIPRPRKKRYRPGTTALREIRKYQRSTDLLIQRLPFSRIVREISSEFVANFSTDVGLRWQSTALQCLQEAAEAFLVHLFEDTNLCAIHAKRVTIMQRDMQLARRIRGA
UniProt Q9US25: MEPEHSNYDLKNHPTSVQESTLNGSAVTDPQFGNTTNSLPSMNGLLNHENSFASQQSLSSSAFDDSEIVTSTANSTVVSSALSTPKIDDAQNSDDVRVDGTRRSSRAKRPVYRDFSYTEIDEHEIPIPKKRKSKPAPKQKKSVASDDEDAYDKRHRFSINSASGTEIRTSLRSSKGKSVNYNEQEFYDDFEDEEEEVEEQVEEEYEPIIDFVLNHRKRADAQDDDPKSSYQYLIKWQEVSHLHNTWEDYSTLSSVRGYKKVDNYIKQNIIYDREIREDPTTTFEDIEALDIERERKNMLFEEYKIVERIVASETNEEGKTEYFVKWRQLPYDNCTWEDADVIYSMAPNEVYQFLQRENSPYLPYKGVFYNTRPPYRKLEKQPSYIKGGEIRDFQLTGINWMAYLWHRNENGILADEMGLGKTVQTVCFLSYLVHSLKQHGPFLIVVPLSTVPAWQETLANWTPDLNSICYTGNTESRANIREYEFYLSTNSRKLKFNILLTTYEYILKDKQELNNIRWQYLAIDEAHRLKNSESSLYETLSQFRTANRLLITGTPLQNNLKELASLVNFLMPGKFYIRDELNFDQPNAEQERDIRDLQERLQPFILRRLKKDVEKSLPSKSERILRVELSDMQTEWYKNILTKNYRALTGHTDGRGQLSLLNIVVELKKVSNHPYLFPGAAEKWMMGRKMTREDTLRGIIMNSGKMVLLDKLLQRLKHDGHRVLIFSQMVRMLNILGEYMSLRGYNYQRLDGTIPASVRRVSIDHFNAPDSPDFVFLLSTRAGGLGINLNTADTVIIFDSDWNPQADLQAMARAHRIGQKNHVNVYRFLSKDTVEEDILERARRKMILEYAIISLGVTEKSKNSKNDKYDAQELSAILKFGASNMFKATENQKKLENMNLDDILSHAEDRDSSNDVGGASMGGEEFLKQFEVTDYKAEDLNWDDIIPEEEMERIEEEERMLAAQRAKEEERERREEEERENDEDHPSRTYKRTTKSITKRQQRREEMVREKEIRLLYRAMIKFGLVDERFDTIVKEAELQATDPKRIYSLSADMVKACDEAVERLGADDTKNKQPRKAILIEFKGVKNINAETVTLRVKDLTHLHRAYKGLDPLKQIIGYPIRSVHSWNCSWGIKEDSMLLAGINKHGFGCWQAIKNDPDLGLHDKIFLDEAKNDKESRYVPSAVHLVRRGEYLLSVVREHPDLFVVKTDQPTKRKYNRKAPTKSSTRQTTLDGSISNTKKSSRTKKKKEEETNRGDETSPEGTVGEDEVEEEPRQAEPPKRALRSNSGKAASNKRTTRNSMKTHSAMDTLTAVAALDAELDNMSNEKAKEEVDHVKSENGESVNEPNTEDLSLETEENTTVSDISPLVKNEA
UniProt O14148: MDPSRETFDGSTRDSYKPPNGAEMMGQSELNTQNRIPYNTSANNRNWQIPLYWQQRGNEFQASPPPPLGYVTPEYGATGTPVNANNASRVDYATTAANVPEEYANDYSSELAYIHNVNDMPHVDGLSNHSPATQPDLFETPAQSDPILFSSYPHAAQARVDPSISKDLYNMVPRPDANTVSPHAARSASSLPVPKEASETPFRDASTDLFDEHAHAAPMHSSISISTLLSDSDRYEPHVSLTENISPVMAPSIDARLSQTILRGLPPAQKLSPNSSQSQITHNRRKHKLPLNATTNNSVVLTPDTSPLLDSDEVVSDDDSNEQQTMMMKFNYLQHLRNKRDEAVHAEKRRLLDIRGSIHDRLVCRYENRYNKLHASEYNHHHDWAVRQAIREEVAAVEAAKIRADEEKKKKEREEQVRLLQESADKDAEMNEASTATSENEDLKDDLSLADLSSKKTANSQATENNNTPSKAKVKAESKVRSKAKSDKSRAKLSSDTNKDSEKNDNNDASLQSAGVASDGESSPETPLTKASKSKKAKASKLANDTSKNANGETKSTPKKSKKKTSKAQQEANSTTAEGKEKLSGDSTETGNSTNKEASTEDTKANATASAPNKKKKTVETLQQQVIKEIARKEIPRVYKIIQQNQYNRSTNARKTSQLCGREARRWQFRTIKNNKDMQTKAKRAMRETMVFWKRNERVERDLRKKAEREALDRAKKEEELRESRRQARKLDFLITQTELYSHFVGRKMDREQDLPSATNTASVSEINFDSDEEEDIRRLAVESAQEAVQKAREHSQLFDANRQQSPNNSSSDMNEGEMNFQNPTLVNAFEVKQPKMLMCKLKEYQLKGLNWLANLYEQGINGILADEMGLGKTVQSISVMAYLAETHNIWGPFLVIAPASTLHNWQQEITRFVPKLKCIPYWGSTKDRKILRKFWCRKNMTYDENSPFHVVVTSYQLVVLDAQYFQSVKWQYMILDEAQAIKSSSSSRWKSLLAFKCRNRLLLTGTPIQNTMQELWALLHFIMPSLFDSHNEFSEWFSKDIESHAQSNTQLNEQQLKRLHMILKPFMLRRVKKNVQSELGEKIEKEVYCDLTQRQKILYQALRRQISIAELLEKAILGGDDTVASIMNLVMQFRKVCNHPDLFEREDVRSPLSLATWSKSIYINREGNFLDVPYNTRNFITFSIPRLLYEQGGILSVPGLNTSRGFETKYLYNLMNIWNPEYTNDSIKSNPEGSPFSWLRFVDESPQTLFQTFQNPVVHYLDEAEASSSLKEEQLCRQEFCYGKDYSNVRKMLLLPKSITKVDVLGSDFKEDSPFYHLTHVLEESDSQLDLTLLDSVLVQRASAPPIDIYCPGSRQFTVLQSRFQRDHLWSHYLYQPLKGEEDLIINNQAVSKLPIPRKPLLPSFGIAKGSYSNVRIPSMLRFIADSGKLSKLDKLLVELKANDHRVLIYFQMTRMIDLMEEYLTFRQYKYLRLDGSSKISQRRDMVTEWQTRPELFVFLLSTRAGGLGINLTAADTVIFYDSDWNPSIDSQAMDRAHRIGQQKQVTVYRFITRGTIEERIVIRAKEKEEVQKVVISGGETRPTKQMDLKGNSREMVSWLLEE
UniProt P48003: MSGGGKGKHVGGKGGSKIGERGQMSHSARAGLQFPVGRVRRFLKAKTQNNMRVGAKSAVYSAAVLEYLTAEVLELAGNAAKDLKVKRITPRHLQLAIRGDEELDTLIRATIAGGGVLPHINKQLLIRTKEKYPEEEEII

B1: Sim3^NASP (protein, UniProt Q9USQ4 1-396)
chain: MSSDTKTLENSKGNSATDADTKNPSSSDSRAIEQLVTQGNMAYAQKNYEEAVDKYGQALMQSESIHGSESLENRNVLWLYGKSLFQIAIENSQVLGNALGAKESVSQATESFEEPEAIGSFTFSGQKIENKYTVNEENSSIAHPEKESEEKETNEASPASEEDEDDFNVAWEVLDLTRVMQSKAVDAYPDSKDEKIRLADIYDLLGELSLEIENFSQASQDLKTALEWKEKVYNVSNNTLLSEAHYKLALALEFTNPEDPSNKSRACEHVEKAAEILKNVLNERENEVTDKKGKGKQKAEESTLTSDLENLREMLSELEQKTLDLKHGAPSLEEAVMSKMHESSLLSKDSSSLAQAVAEAVKNANDLGGLVKRKRTKQEVTSSSQKEGPKDKKKKD
B2: Cnp3^CENP-C (protein, UniProt Q9USR9 1-643)
chain: MTMNETSAIPARQRENQFFEIGVVGRKTGFTVPRDVKKGDDGFEDMDAYFLSDGSIHLDEDNGDIEQDMPPVTRLQPTSPMAVNAASDEASHASSSDSSDKNPDIPSSPLLMNSRALRASRGSSGPLIVPIDHSAFQAEDEGTADKTKVDGNKLSIQPRKANRIVDFSRIKASPDRKKFEPRRSTELPSKIPSSTPKDDNVQESPAFPDENITALQKNVANFTSIKDSGGRDNLYIQTISKPRRSYVQNNKSEQTIKPSKQNKQKEEKKTISQGNKPNSRDEDSELSIDVPLSMLNRSLANNSQKNKKRTPNKPLQESSINSVKEGESNPVVKRKRGRPRKNKLEIGNSVQTSEATQVKGAKKPAIRNAKKMSNEKDDSLNSQSDSASGEFIKTIARNNLQEIKQVEREDTLVGVRRSKRTRIAPLAFWKNERVVYELHRDENRIPALPEVKQIIRVDDPSPSIRQGRKKRHAKRSGVEIKSNLEAKSNDVEEYDAFYKDEINCEVLSWNEQNPKASEERVVGYSLPSVNLQQISNQQLKFASLFKEEPSFAAGVVEMPAGAEKPVKPSKHNIMSFCILQGKIEVTVNATTFRMKKDGVFIVPRGNYYSIKNIGKEAVRLYYTHATDTLENKRRGIGDFPNER

The molecules below were run against GFP-CENP-A^Cnp1 (S. pombe) (UniProt Q9Y812) (assay: affinity purification with mass spectrometry).

| binding | Molecule |
| --- | --- |
| binds | Hrp1^Chd1 (from UniProt Q9US25 1-1373) |
| binds | Ino80 (from UniProt O14148 1-1604) |
| binds | histone variant H2A.Z (encoded by the pht1+ gene in S. pombe) (from UniProt P48003 1-139) |
| binds | B1 |
| binds | B2 |
